Reference: patent US7919462B2, “Inhibitors of human plasmin derived from the Kunitz domains” (Dyax Corp., priority 1994, dated 2011)
Entries after “also recorded” stand apart in the source; their conditions may differ. Not every detail of the peptide structures is certain; ends, links or a residue may be inferred. Bridges are numbered along the chain shown (N, C = ends). Where no end group is shown, it is not given here.

By UniProt entry, the sequences of proteins in these tests, tags left out. Residues count along the entry.
UniProt P00747, 97-580 partner limits assumed: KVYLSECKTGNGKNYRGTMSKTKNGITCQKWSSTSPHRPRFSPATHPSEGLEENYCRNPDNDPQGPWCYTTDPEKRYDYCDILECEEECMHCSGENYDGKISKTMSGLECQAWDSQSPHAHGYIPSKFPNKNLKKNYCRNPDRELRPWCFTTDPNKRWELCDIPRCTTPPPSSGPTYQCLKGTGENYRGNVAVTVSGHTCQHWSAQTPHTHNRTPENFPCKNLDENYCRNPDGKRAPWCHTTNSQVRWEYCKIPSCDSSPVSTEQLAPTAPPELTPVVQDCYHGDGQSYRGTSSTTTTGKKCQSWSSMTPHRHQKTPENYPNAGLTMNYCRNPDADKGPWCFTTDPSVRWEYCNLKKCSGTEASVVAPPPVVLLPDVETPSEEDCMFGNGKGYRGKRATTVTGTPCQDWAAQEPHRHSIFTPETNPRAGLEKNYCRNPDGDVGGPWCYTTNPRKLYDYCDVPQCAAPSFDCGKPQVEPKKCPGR
UniProt P00747, 581-810 limits assumed: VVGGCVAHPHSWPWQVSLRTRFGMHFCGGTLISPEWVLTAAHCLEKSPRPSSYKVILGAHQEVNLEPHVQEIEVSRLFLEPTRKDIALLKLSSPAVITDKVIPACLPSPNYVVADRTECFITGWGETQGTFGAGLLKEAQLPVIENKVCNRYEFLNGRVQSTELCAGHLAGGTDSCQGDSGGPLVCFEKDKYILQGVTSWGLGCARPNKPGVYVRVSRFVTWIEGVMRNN

Molecular target: plasmin (Homo sapiens, UniProt P00747)
Assay: Inhibition of plasmin hydrolysis of succinyl-Ala-Phe-Lys-(F3Ac)AMC, tight-binding fit (Ki used as KD)
Assay type: biochemical
Source text: A second appropriate method of measuring KD is to measure the inhibitory activity against the enzyme. […] Here, we use the measured Ki as a direct measure of KD.
Inhibition of hydrolysis of succinyl-Ala-Phe-Lys-(F3Ac)AMC (a methyl coumarin) (Sigma Chemical, St. Louis, Mo.) by plasmin at 2.5×10^−8 M with varying amount of inhibitor were fit to the standard form for a tight-binding […] by least-squares.

## MHSFCAFKADAGPCRAKFERFFFNIFTRQCTAFFYGGCGGNQNRFESLEECKKMCTRD (disulfide 5-55, 14-38, 30-51) [SPI51]
Class words wrapped over r53-r54: Highly Superior / very potent / potent, order SPI11<BPTI<SPI23=SPI51<SPI47<QS4<SPI22<SPI54<SPI43
  potency class for plasmin below the rank order of Table 8: very
Preliminary testing, in words
  plasmin inhibitory activity, potency relative to other proteins: better than QS4; also recorded: only slightly less potent than BPTI
